Data from the supplement of paper PMC6411743.
± gives the standard deviation of the averaged measurements. The entries are a selection whose mix differs from that of the whole data set.

How the values were obtained:
Assay in all cases: NP40-soluble protein abundance relative to vehicle (solubility fold change) (ratio); higher = more soluble protein in presence of ATP
C2orf69 = biological target: T1, C2orf69 (UniProt Q8N8R5)
T1 sequence (whole entry): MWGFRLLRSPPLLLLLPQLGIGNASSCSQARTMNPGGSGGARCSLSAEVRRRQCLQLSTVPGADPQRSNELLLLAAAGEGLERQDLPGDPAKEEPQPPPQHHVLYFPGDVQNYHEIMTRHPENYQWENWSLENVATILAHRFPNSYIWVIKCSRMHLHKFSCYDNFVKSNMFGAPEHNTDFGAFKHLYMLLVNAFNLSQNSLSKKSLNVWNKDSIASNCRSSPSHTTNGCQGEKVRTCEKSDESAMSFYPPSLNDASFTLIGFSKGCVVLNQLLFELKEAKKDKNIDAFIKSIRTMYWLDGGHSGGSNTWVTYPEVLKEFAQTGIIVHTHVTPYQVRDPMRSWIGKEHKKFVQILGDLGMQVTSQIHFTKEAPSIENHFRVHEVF
Method in brief: (§1)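 In three independent experiments, Jurkat crude lysate made by Dounce homogenisation was treated for 10 min at room temperature and then 3 min at 37 °C with eight concentrations ranging from 0.1 to 10 mM. It was then solubilised with 0.8% NP40 plus benzonase for 60 min at 4 °C and ultracentrifuged. The supernatant was TMT-labelled for LC-MS/MS, and each value is the fold change against the detergent-processed vehicle for the same replicate, using vsn-normalised intensities.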

CBR4 = biological target: T2, CBR4 (UniProt Q8N4T8)
T2 sequence (whole entry): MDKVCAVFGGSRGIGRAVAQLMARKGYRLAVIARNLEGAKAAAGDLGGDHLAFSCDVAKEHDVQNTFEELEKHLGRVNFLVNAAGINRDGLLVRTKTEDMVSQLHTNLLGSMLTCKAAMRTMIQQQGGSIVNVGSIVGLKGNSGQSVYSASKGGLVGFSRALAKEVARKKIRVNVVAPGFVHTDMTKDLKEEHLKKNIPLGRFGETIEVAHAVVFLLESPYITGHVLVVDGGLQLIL
Method in brief: as §1

KIAA0319L = biological target: T3, KIAA0319L (UniProt Q8IZA0)
T3 sequence (whole entry): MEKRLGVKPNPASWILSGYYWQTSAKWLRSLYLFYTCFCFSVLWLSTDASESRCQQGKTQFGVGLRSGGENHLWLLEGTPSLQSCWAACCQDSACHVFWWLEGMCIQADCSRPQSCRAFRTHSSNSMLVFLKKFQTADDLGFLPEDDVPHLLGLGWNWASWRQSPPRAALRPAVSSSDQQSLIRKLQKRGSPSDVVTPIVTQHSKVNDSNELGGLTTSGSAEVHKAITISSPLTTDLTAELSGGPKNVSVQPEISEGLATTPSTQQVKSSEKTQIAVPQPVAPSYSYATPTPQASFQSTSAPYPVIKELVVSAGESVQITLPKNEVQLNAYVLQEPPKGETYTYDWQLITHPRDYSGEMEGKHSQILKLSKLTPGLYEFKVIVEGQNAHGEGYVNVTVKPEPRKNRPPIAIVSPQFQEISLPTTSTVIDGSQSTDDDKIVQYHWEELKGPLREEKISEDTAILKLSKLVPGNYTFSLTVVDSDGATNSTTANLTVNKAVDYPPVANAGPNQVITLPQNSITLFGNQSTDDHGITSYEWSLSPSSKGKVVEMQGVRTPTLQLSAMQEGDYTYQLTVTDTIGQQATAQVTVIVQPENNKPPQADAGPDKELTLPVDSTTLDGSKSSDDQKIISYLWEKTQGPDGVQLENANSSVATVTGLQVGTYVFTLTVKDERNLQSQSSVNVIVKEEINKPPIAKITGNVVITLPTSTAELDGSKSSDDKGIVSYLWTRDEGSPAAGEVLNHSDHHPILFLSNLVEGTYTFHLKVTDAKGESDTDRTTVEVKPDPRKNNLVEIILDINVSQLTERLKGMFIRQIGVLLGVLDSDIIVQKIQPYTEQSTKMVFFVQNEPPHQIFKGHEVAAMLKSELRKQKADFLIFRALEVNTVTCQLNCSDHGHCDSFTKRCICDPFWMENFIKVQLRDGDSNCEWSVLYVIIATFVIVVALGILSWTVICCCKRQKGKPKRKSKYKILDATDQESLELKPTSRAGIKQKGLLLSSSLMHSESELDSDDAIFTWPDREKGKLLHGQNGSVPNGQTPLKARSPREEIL
Method in brief: as §1

LNX2 = biological target: T4, LNX2 (UniProt Q8N448)
T4 sequence (whole entry): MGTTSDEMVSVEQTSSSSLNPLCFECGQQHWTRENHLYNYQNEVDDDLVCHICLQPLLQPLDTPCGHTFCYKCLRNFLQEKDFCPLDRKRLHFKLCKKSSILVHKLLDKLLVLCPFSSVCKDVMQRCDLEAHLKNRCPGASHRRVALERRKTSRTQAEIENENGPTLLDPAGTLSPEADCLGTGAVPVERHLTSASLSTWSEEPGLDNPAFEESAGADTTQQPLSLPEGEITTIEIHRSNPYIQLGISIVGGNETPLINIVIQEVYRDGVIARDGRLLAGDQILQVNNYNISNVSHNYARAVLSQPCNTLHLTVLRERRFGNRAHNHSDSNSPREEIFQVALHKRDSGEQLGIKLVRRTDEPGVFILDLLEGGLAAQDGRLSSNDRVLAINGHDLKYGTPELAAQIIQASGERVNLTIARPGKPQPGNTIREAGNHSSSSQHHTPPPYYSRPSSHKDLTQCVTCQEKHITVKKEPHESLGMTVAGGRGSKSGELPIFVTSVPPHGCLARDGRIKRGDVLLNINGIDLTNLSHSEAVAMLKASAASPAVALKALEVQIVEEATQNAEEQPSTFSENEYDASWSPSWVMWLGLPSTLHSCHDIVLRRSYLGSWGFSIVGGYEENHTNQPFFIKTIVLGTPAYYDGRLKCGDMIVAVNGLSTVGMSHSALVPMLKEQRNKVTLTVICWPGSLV
Method in brief: as §1

RBM15B = biological target: T5, RBM15B (UniProt Q8NDT2)
T5 sequence (whole entry): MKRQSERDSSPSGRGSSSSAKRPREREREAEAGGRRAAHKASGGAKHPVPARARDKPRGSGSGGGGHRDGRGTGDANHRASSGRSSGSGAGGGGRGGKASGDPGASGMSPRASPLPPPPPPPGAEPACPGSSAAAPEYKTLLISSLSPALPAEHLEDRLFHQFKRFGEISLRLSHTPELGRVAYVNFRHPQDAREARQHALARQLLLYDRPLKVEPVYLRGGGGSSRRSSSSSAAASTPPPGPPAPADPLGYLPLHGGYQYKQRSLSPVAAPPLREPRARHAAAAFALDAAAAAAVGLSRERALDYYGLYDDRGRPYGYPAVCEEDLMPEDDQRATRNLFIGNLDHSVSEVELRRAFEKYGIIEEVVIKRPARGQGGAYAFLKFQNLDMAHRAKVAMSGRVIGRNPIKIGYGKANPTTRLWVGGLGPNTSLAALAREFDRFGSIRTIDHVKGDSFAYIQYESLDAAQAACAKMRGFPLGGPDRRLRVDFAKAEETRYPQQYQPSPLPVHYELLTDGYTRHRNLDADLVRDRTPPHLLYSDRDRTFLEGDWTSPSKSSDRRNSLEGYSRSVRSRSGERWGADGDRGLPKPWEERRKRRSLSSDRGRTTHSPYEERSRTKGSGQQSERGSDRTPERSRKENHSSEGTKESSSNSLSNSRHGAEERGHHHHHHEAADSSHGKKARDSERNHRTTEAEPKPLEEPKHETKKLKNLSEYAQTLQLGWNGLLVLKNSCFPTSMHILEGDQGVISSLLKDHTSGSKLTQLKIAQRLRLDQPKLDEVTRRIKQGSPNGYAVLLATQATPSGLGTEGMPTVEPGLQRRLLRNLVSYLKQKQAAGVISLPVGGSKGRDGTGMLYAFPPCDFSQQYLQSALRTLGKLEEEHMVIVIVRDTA
Method in brief: as §1

RP9 = biological target: T6, RP9 (UniProt Q8TA86); details: concentration: 1mM
T6 sequence (whole entry): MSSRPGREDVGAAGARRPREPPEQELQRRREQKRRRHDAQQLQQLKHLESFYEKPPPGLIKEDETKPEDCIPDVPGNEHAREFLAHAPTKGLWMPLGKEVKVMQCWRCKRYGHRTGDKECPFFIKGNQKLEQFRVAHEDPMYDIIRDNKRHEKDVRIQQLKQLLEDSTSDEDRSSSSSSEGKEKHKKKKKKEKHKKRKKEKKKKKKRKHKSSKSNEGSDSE
Method in brief: as §1

Nc1ncnc2c1ncn2[C@@H]1O[C@H](COP(=O)(O)OP(=O)(O)OP(=O)(O)O)[C@@H](O)[C@H]1O [adenosine triphosphate]
NP40-soluble protein abundance (C2orf69; concentration: 1mM): 1.04 ± 0.083
NP40-soluble protein abundance (C2orf69; concentration: 2mM): 1 ± 0.064
NP40-soluble protein abundance (C2orf69; concentration: 4mM): 1 ± 0.064
NP40-soluble protein abundance (C2orf69; concentration: 6mM): 0.951 ± 0.033
NP40-soluble protein abundance (C2orf69; concentration: 8mM): 0.973 ± 0.016
NP40-soluble protein abundance (C2orf69; concentration: 10mM): 0.949 ± 0.06
NP40-soluble protein abundance (CBR4; concentration: 1mM): 0.949 ± 0.038
NP40-soluble protein abundance (CBR4; concentration: 2mM): 0.975 ± 0.039
NP40-soluble protein abundance (CBR4; concentration: 4mM): 0.974 ± 0.054
NP40-soluble protein abundance (CBR4; concentration: 6mM): 0.907 ± 0.017
NP40-soluble protein abundance (CBR4; concentration: 8mM): 0.945 ± 0.028
NP40-soluble protein abundance (CBR4; concentration: 10mM): 0.984 ± 0.027
NP40-soluble protein abundance (KIAA0319L; concentration: 1mM): 0.977 ± 0.041
NP40-soluble protein abundance (KIAA0319L; concentration: 2mM): 0.965 ± 0.038
NP40-soluble protein abundance (KIAA0319L; concentration: 4mM): 0.987 ± 0.018
NP40-soluble protein abundance (KIAA0319L; concentration: 6mM): 1.01 ± 0.012
NP40-soluble protein abundance (KIAA0319L; concentration: 8mM): 0.944 ± 0.038
NP40-soluble protein abundance (KIAA0319L; concentration: 10mM): 0.958 ± 0.018
NP40-soluble protein abundance (LNX2; concentration: 1mM): 1 ± 0.05
NP40-soluble protein abundance (LNX2; concentration: 2mM): 0.936 ± 0.012
NP40-soluble protein abundance (LNX2; concentration: 4mM): 1.01 ± 0.078
NP40-soluble protein abundance (LNX2; concentration: 6mM): 0.942 ± 0.028
NP40-soluble protein abundance (LNX2; concentration: 8mM): 0.931 ± 0.12
NP40-soluble protein abundance (LNX2; concentration: 10mM): 0.968 ± 0.1
NP40-soluble protein abundance (RBM15B; concentration: 1mM): 1.18 ± 0.062
NP40-soluble protein abundance (RBM15B; concentration: 2mM): 1.2 ± 0.046
NP40-soluble protein abundance (RBM15B; concentration: 4mM): 1.26 ± 0.064
NP40-soluble protein abundance (RBM15B; concentration: 6mM): 1.32 ± 0.095
NP40-soluble protein abundance (RBM15B; concentration: 8mM): 1.34 ± 0.065
NP40-soluble protein abundance (RBM15B; concentration: 10mM): 1.37 ± 0.035
NP40-soluble protein abundance (RP9): 0.978 ± 0.16
